Hit rate of the full screen: of about 320,000 compounds, about 2,100 (0.66%) were called active. Calls come from the whole dose curve; as a rule, active = well fitted inhibition curve with a large enough effect in the signal ratio, with a control signal flat (not every such curve was filed as active); inconclusive = small, poorly fitted or top-dose-only effect, or effect the other way, or a change in a side signal; inactive = flat fitted curve, though single readings scatter; the % refers to the signal ratio. The inconclusive results got no clear call from the source. Where the call is inconclusive, the potency comes from a doubtful curve fit.
assay: qHTS Assay for Lipid Storage Modulators in Drosophila S3 Cells; details: BODIPY lipid droplet fluorescence, 18-24 h, cells fed with added oleic acid; lipid storage change, negative = inhibition: at 46.1 µM (top of the series) unless noted
Method in brief: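 Laser-scanning cytometry quantifies lipid droplet accumulation (500–530 nm total intensity; droplet/cell object ratio) in oleic acid-fed (400 uM added) Drosophila S3 cells treated with a concentration series. 20 uM Triacsin C defined 100% inhibition.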
% is set by controls: 0 for no effect and ±100 for the full control effect; potency is the fitted concentration of half-maximal effect.

SMILES	Potency	lipid storage change, negative = inhibition
NC(=O)CSc1ncc(-c2ccccc2)[nH]1	inconclusive: 18.4 µM [activator, single point]	
COc1ccc(N=C2NC(=O)C(CO)(CO)S2)cc1	inconclusive: 29.1 µM [activator, single point]	
CCCCN1CC(=O)N2[C@H](c3ccc(OC)cc3)[C@@H]3C(=O)N(CC)C(=O)[C@@H]3[C@]2(Cc2ccccc2)C1=O		inconclusive: -8.36%
COc1ccccc1CCNC(=O)CNC(=O)c1ccc2ccccc2c1	inconclusive: 23.1 µM [falling, single point]	
CCn1nccc1C(=O)Nc1ccc(S(=O)(=O)NC23CC4CC(CC(C4)C2)C3)cc1	inconclusive: 18.4 µM [cytotoxic, partial curve]	
CCCCc1c(CCC)c(=N)c2ccccc2n1C		inconclusive: -17.6%
COC(=O)[C@H](CC(C)C)NCc1cccc(CN[C@@H](CC(C)C)C(=O)OC)c1	inconclusive: 6.51 µM [falling, partial curve, poor fit]	
O=C(CSc1nn(-c2ccc(F)cc2)c(=S)s1)NC(=O)NCc1ccco1	inconclusive: 5.17 µM [rising, partial curve]	
COC(=O)c1cc(OC)c(OC)cc1NC(=O)c1ccco1	inconclusive: 4.61 µM [activator, partial curve]	
Cc1ccc(CSCCNC(=O)c2cccc([N+](=O)[O-])c2)cc1		inconclusive: -2.41%
Cc1cccc(NC(=S)NNC(=O)COc2ccc(Cl)cc2Cl)c1	inconclusive: 18.4 µM [falling, single point]	
Cc1ccc(S(=O)(=O)Oc2ccc3c(c2)O/C(=C\c2cccnc2)C3=O)cc1	inconclusive: 9.2 µM [rising, partial curve, poor fit]	
COc1ccc(-c2cc(=O)oc3cc(OC(C)C(=O)O)ccc23)cc1 (centres undefined)		inconclusive: 2.09%
O=C(Nc1cnn(Cc2ccc(Cl)cc2Cl)c1)c1noc2c1CCCC2		inconclusive: -18.3%
Cc1ccc(C2(C)NC(=O)N(CC(=O)c3ccc(Cl)s3)C2=O)cc1 (centres undefined)		inconclusive: 51.3%
CCn1c(SCC(=O)Nc2ccc3c(c2)c2ccccc2n3CC)nnc1-c1cnccn1		inconclusive: -6.43%
CCCNS(=O)(=O)c1ccc2c(c1)n(C)c(=O)n2C		inconclusive: 8.5%
COc1ccc(NC(=O)c2ccco2)cc1NC(=O)c1cc2ccccc2o1	inconclusive: 29.1 µM [activator, single point]	
CC(=O)c1cccc(NC(=O)C2CCN(S(C)(=O)=O)CC2)c1	inconclusive: 0.651 µM [falling, single point]	
CCOC(=O)/C=C1\SCC(=O)N1Cc1nnc(-c2ccccc2Br)o1	inconclusive: 4.61 µM [activator, full curve]	
CCCc1cc(=O)[nH]c(SCC(=O)Nc2ccc(OC(F)F)cc2)n1	inconclusive: 2.91 µM [falling, single point]	
CCn1ncc(Br)c1C(=O)Nc1sc2c(c1C(N)=O)CCC2	inconclusive: 0.164 µM [falling, full curve, poor fit]	

Some of the entries above, reformatted.
CCn1nccc1C(=O)Nc1ccc(S(=O)(=O)NC23CC4CC(CC(C4)C2)C3)cc1
  Potency: inconclusive: 18.4 µM [cytotoxic, partial curve]
CCn1c(SCC(=O)Nc2ccc3c(c2)c2ccccc2n3CC)nnc1-c1cnccn1
  lipid storage change, negative = inhibition: inconclusive: -6.43%
CCn1ncc(Br)c1C(=O)Nc1sc2c(c1C(N)=O)CCC2
  Potency: inconclusive: 0.164 µM [falling, full curve, poor fit]

More records follow:

SMILES	Potency	lipid storage change, negative = inhibition
O=C(CNC(=O)c1cnccc1C(F)(F)F)c1cccc(Cl)c1		inconclusive: 4.34%
COc1ccc(N2CSC3=C(C#N)C(c4cccc(OC)c4OC)CC(=O)N3C2)cc1 (centres undefined)	inconclusive: 4.11 µM [activator, partial curve, poor fit]	
COc1cc([N+](=O)[O-])ccc1NC(=S)Nc1cc(C(=O)OC(C)C)cc(C(=O)OC(C)C)c1	inconclusive: 29.1 µM [falling, single point]	
COc1cc(C2NC(=O)NC(C)=C2C(=O)OCc2ccc(C)cc2)cc(OC)c1O (centres undefined)		inconclusive: -6.52%
COc1ccc(Br)c(C(=O)OCC(=O)NC2CC2)c1		inconclusive: 15.2%
Cc1c(Cc2ccccc2)c(=O)oc2c(CN(C)C)c(O)c(Cl)cc12		inconclusive: -42.6% [cytotoxic]
COc1ccccc1C(=O)N(Cc1ccc(Cl)cc1)C1CCS(=O)(=O)C1 (centres undefined)	inconclusive: 9.2 µM [falling, partial curve]	
COc1cc2c(cc1OC)CN(c1ccc(F)cc1[N+](=O)[O-])CC2		inconclusive: 8.31%
Cc1cccc(N(CC(=O)NCc2ccco2)C(=O)CCC(=O)Nc2ccccn2)c1C		inconclusive: 68.9%
COc1ccc(C(=O)NN=C(Cc2ccccc2)Cc2ccccc2)cc1OC	inconclusive: 3.66 µM [activator, partial curve]	
Cc1ccc(S(=O)(=O)NCCC(=O)NNC(=O)c2ccccc2Cl)cc1C		inconclusive: 20.6%
Oc1ccc(N=Nc2n[nH]c(-c3ccc(Cl)cc3)n2)cc1		inconclusive: 6.23%
O=C1NC(=Nc2ccccc2Cl)S/C1=C\c1cc([N+](=O)[O-])ccc1O	inconclusive: 0.103 µM [activator, full curve, poor fit]	
Cc1cc(C(=O)OCC(=O)Nc2ccccc2[N+](=O)[O-])c2ccccc2n1	inconclusive: 6.51 µM [falling, single point]	
CCN(CC(=O)Nc1c(F)cccc1F)C(=O)c1ccc(N2CCCC2=O)cc1		inconclusive
CN1C(=O)CC(C(=O)O)SC1=Nc1cc(Cl)cc(Cl)c1 (centres undefined)		inconclusive: 8.33%
COc1cc(CN2CCC(CCC(=O)NC3CC3)CC2)cc(Cl)c1OC	inconclusive: 23.1 µM [activator, single point]	
C[C@H](NC(=O)C1CCN(S(=O)(=O)c2ccccc2)CC1)C(=O)NCc1cccc(Cl)c1		inconclusive: -16.5%
Cc1ccccc1C(=O)NNC(=O)c1ccc(F)cc1		inconclusive: 25.2%
CCOc1ccc(NC(=O)c2cccc(-n3cccc3)c2)cc1S(=O)(=O)N1CCOCC1	inconclusive: 6.51 µM [activator, single point]	
CC(=O)Nc1cccc(NC(=O)CSc2nnc3ccc(-c4ccccn4)nn23)c1		inconclusive: 31.3%
CC1CCC(C(C)C)C(=O)/C1=C/c1ccc(N)cc1 (centres undefined)		inconclusive: -12.7%

— PubChem BioAssay AID2685 (National Center for Advancing Translational Sciences (NCATS), 2010)
